{"source": "PubChem BioAssay AID1259308 (NCATS, 2017)", "purpose": "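Candidate targets for better recombinant protein yield in mammalian cells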 (primary screen)", "system": "human HEK293 embryonic kidney cells stably expressing firefly luciferase (HEK-CMV-Luc2-Hygro)", "reagent": "single siRNA against human genes, 0.8 pmol siRNA per well", "timing": "72 h", "measured": "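Reporter luminescence and viable-cell signal on separate replicate plates, given as percent of non-targeting control and median/MAD z-scores, plus per-cell luciferase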", "scale": "total luciferase, z-score and total luciferase, % of control: higher = more reporter protein produced", "active means": "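An siRNA counts as active if its total luciferase robust z-score exceeds 3; genes with two or more such siRNAs out of three were retested with fresh siRNAs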", "meaning of the calls": "active = raised luciferase; inactive = no rise", "note": "This is a random part of about 59,000 deposited reagents. In the full data, about 1,510 (2.6%) got an active call. 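Calls use total luciferase alone and ignore viability, so some active siRNAs may act by altering cell number.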 Entries without a mark were called inactive. The numbers tell different reagents against one gene apart. Not all columns of the deposit are shown. No sequences are given here."}
{"Target gene": "CD59", "siRNA no.": 1, "total luciferase, z-score": -0.179, "total luciferase, % of control": 78.3}
{"Target gene": "CD59", "siRNA no.": 2, "total luciferase, z-score": -1.03, "total luciferase, % of control": 61.4}
{"Target gene": "CD59", "siRNA no.": 3, "total luciferase, z-score": -2.19, "total luciferase, % of control": 38.3}
{"Target gene": "KMO", "siRNA no.": 1, "total luciferase, z-score": "3.91 (active)", "total luciferase, % of control": 160}
{"Target gene": "KMO", "siRNA no.": 2, "total luciferase, z-score": -0.497, "total luciferase, % of control": 72}
{"Target gene": "KMO", "siRNA no.": 3, "total luciferase, z-score": -0.179, "total luciferase, % of control": 78.3}

Continued, starting with the last 2 of the part before.
{"Target gene": "KMO", "siRNA no.": 2, "total luciferase, z-score": -0.497, "total luciferase, % of control": 72}
{"Target gene": "KMO", "siRNA no.": 3, "total luciferase, z-score": -0.179, "total luciferase, % of control": 78.3}
{"Target gene": "LARGE1", "siRNA no.": 1, "total luciferase, z-score": -1.66, "total luciferase, % of control": 49}
{"Target gene": "LARGE1", "siRNA no.": 2, "total luciferase, z-score": 0.217, "total luciferase, % of control": 86.2}
{"Target gene": "LARGE1", "siRNA no.": 3, "total luciferase, z-score": -1.41, "total luciferase, % of control": 53.9}
{"Target gene": "SPAAR", "siRNA no.": 1, "total luciferase, z-score": -0.908, "total luciferase, % of control": 63.8}
{"Target gene": "SPAAR", "siRNA no.": 2, "total luciferase, z-score": -0.499, "total luciferase, % of control": 72}
{"Target gene": "SPAAR", "siRNA no.": 3, "total luciferase, z-score": "5.93 (active)", "total luciferase, % of control": 200}
